Results are given in words; binding and its absence hold for the method and conditions named. Binding seen in cells or lysates may run through a third protein. These calls come from enrichment with a bait or labelling near it, and not all partners need be listed. Values belong to the molecule of their own block, whether it stands above or below them.
Biological target: His6-tagged wild-type paxillin (mouse paxillin-α) (mouse) (UniProt Q8VI36)
Assay: affinity purification with mass spectrometry; His6-tagged wild-type paxillin pulled down from Ba/F3 lysate (1 mg protein) with Ni-NTA beads, 30 min at 4°C; lysis buffer 20 mM imidazole-HCl pH 7.4, 130 mM NaCl, 0.05% Tween-20; one wash with 2 M urea; eluted with 150 mM imidazole; 8% SDS-PAGE, silver stain, bands of two regions cut out, LC-MS; mock-transfected cells as control

Protein sequences, listed by entry. Tags and fused reporters are not part of them. Lines headed by an entry give the natural chain unless they say otherwise; changes in a name come on top. Chains listed by the source or under a name are the forms on record and can include a tag or linker.
His6-tagged wild-type paxillin (mouse paxillin-α) (Q8VI36, form named): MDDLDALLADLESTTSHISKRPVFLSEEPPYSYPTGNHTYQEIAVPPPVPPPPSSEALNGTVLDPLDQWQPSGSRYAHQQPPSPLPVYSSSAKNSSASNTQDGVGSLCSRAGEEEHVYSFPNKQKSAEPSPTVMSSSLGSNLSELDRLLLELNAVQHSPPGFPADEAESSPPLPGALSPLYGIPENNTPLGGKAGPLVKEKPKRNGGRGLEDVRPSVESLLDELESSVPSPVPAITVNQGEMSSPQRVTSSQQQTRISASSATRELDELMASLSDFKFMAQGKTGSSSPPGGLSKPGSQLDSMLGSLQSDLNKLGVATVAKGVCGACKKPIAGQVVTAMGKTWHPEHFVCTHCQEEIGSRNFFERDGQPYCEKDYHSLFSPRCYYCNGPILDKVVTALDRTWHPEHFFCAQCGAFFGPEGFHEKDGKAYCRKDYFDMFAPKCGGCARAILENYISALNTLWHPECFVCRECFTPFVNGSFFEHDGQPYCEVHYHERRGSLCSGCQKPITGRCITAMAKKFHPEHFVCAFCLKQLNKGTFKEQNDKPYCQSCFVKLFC
UniProt Q6NV83: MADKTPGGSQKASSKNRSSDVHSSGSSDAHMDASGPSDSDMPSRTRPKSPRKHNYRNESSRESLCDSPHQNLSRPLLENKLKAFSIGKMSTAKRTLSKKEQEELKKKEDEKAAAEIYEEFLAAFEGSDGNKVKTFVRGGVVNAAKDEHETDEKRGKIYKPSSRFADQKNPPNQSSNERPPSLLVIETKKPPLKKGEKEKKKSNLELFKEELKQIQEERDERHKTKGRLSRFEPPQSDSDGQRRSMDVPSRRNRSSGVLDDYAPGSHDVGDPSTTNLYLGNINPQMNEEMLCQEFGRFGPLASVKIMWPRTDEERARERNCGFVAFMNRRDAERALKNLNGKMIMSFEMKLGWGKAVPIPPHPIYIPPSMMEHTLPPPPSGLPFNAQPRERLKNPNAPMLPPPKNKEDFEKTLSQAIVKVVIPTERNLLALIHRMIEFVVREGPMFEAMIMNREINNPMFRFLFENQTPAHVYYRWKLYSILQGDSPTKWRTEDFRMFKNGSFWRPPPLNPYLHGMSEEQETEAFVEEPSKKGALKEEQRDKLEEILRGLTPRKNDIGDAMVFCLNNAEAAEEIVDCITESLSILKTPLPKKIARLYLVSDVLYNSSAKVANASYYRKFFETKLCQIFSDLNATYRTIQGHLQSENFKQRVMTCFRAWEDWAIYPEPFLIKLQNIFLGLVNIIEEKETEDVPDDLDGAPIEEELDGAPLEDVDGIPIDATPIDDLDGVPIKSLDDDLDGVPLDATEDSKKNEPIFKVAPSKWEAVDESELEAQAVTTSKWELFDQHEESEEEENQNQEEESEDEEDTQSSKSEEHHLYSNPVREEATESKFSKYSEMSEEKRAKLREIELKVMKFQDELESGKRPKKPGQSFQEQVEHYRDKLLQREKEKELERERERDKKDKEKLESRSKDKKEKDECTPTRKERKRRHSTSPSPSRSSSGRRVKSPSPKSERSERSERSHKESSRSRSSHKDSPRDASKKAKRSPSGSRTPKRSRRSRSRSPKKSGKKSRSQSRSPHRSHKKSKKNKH
UniProt Q62441: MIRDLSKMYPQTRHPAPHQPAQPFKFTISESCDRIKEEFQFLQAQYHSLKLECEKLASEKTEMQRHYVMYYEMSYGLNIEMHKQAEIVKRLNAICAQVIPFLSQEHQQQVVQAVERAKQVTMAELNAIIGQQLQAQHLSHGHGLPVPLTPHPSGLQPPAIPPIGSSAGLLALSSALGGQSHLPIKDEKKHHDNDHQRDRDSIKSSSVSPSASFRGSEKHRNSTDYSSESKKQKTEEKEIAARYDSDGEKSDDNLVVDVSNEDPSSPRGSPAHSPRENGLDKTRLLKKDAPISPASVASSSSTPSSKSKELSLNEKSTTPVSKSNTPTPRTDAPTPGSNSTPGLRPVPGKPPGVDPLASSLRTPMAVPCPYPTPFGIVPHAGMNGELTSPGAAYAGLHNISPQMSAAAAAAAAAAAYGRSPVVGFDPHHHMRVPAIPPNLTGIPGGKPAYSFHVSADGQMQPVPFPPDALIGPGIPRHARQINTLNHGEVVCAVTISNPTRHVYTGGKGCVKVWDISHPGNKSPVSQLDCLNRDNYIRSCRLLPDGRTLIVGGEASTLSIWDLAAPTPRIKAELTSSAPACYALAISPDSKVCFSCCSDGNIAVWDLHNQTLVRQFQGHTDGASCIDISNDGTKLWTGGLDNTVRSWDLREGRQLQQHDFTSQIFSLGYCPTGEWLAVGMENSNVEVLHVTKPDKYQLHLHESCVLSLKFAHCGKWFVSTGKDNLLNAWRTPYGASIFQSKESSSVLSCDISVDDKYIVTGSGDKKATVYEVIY

- binding: binds
Molecule: U2-associated protein SR140 (from UniProt Q6NV83 1-1029)

- binding: binds
Molecule: MKIAA1261 protein (Transducin-like enhancer protein 4) (from UniProt Q62441 1-773)

- binding: binds
B1: ARF GTPase-activating protein GIT2 (accession Q9JLQ2) (protein, UniProt Q9JLQ2 1-708)
chain: MSKRLRSSDVCADCNGPDPSWASVNRGTFICDECCSVHRSLGRHISQVRHLKHTAWPPTLLQMVETLYNNGANSIWEHSLLDPASIMSGRRKANPQDKVHPNKAEFIRAKYQMLAFVHRLPCREDDSVTAKDLSKQLHSSVRTGNLETCLRLLSLGAQANFFHPEKGSTPLHVASKAGQILQAELLAVYGADPGTQDSSGKTPVDYARQGGHHELAERLIEIQYELTDRLAFYLCGRKPDHKSGQHFLIPQRADSLDLSELAKAAKKKLQSLSNHLFEELAMDVYDEVDRRETDAVWLATQNHSTLVTETTVVPFLPVNPEYSSTRNQGRQKLARFNAHEFATLVIDILSDAKRRQQGSPLSRSKDNVELILRTVSTQHSTESQDNDQPDYDSVASDEDTDVETRASKANRQKLQTLQSENSSLRRQATASACQVQTGSDHKDTASHSSLKRRPSARGSRPMSMYETGSGQKPYLPMGEASHPEESRTRLQPFPTHIGRSALVTSSSSLPSFPSTLSWSRDESARRASRLEKQNSTPESDYDNTACDPEPDDTGSTRKGRQRSMLWQGDGLLPDTAEPHSVPSPTLPSTEDVIRKTEQITKNIQELLRAAQENKHDSYIPCSERIHVAVTEMAALFPKKPKSDTVRTSLRLLTSSAYRLQSECRKALPGDSSLPTDVQLVTQQVIQCAYDIAKAAKQLVTITTKENSS

- binding: binds
B2: ARF GTPase-activating protein GIT1 (protein, UniProt Q68FF6 1-770)
chain: MSRKGPRAEVCADCSAPDPGWASISRGVLVCDECCSVHRSLGRHISIVKHLRHSAWPPTLLQMVHTLASNGANSIWEHSLLDPAQVQSGRRKANPQDKVHPIKSEFIRAKYQMLAFVHKLPCRDDDGVTAKDLSKQLHSSVRTGNLETCLRLLSLGAQANFFHPEKGTTPLHVAAKAGQTLQAELLVVYGADPGSPDVNGRTPIDYARQAGHHELAERLVECQYELTDRLAFYLCGRKPDHKNGHYIIPQMADRSRQKCMSQSLDLSELAKAAKKKLQALSNRLFEELAMDVYDEVDRRENDAVWLATQNHSTLVTERSAVPFLPVNPEYSATRNQGRQKLARFNAREFATLIIDILSEAKRRQQGKSLSSPTDNLELSARSQSELDDQHDYDSVASDEDTDQEPLPSAGATRNNRARSMDSSDLSDGAVTLQEYLELKKALATSEAKVQQLMKVNSSLSDELRRLQREIHKLQAENLQLRQPPGPVPPPSLPSERAEHTLMGPGGSTHRRDRQAFSMYEPGSALKPFGGTPGDELATRLQPFHSTELEDDAIYSVHVPAGLYRIRKGVSASSVPFTPSSPLLSCSQEGSRHASKLSRHGSGADSDYENTQSGDPLLGLEGKRFLELSKEDELHPELESLDGDLDPGLPSTEDVILKTEQVTKNIQELLRAAQEFKHDSFVPCSEKIHLAVTEMASLFPKRPALEPVRSSLRLLNASAYRLQSECRKTVPPEPGAPVDFQLLTQQVIQCAYDIAKAAKQLVTITTREKKQ

- binding: binds
B3: Alpha-Pix (protein, UniProt Q8K4I3 1-771)
chain: MNPEERLVTWLISLGVLESPKKTVCDPEEFLKSSLKNGVVLCKLINRLLPGSVEKYCLEPQTEADCIDNINDFLKGCATLQVEVFEPDDLYSGANFSKVLNTLLAVNKATEDQLSERPCGRSSSLSAATSSQTNPQVAVPSTAPEQHSEEKAEMTENGSHQLIVKARFNFKQTNEDELSVCKGDIIYVTRVEEGGWWEGTLNGRTGWFPSNYVREIKPSERPLSPKAIKGFDTAPLTKNYYTVVLQNILDTEKEYAKELQSLLVTYLRPLQSNNNLSTVEFTCLLGNFEEVCTFQQTLCQALEECSKFPENQHKVGGCLLNLMPHFKSMYLAYCANHPSAVNVLTQHSDDLERFMENQGASSPGILILTTSLSKPFMRLEKYVTLLQELERHMEDTHPDHQDILKAIIAFKTLMGQCQDLRKRKQLELQILSEPIQAWEGDDIKTLGNVIFMSQVVMQHGACEEKEERYFLLFSSVLIMLSASPRMSGFMYQGKIPIAGMVVNRLDEIEGSDCMFEITGSTVERIVVHCNNNQDFQEWMEQLNRLTKGPTSCGSLSKTSSSSCSTHSSFSSTGQPRGPLEPPQIIKPWSLSCLRPAPPLRPSAALGYKERMSYILKESSKSPKTMKKFLHKRKTERKASEEEYVIRKSTAALEEDAQILKVIEAYCTSASFQQGTRKDSVPQVLLPEEEKLIIEETRSNGQTIIEEKSLVDTVYALKDEVKELKQENKKMKQCLEEELKSRKDLEKLVRKLLKQTDECIRSESSSKTSILQ

- binding: binds
B4: ATP-dependent RNA helicase DDX42 (protein, UniProt Q810A7 1-929)
chain: MNWNKGGPGTKRGFGFGGFAISAGKKEEAKLPQQSHSAFGAASSSSGFGKSAPPQLPSFYKIGSKRANFDEENAYFEDEEEDSSNVDLPYIPAENSPTRQQFHSKPADSDSDDDPLEAFMAEVEDQAARDMKRLEEKDKERKNVKGIRDDIEEEDDQEAYFRYMAENPTAGVVQEEEEDNLEYDSDGNPIAPSKKIIDPLPPIDHSEIDYPPFEKNFYNEHEEITNLTPQQLIDLRHKLNLRVSGAAPPRPGSSFAHFGFDEQLMHQIRKSEYTQPTPIQCQGVPVALSGRDMIGIAKTGSGKTAAFIWPMLIHIMDQKELEPGDGPIAVIVCPTRELCQQIHAECKRFGKAYNLRSVAVYGGGSMWEQAKALQEGAEIVVCTPGRLIDHVKKKATNLQRVSYLVFDEADRMFDMGFEYQVRSIASHVRPDRQTLLFSATFRKKIEKLARDILIDPIRVVQGDIGEANEDVTQIVEILHSGPSKWNWLTRRLVEFTSSGSVLLFVTKKANAEELASNLKQEGHNLGLLHGDMDQSERNKVISDFKKKDIPVLVATDVAARGLDIPSIKTVINYDVARDIDTHTHRIGRTGRAGEKGVAYTLLTPKDSNFAGDLVRNLEGANQHVSKELLDLAMQNAWFRKSRFKGGKGKKLNIGGGGLGYRERPGLGSENSDRGNNNNVMSNYEAYKPSTGAMGDRLTAMKAAFQSQYKSHFVAASLSNQKAGTSSAGASGWTSAGSLNSVPTNSAQQGHNSPDNPMTSSTKNIPGFNNSGNISSAPVTYPSIGAQGVNNTASGNNSREGIGGGNGKRERYTENRGGSRHSHGDGGNRHGDGGRHGDGYRYPESGSRHTDGHRHGETRHGGSAGRHGESRGANDGRNGESRKEGFNRENKMDPKVDSSRMDKVDSKTDKTPDGFAVPEPPKRKKSRWDS
